Laboratory results taken from article PMC8144413.
Results are given in words; binding and its absence hold for the method and conditions named. In cells and extracts the contact can be indirect. Binding can be weak; no strength is given. Where a sequence is shown, tags or fusion partners need not be part of it.

Amino acid sequences for entries named in this document (tags omitted). A change or cut given only in a name is not applied to a line headed by its entry.
UniProt O94953: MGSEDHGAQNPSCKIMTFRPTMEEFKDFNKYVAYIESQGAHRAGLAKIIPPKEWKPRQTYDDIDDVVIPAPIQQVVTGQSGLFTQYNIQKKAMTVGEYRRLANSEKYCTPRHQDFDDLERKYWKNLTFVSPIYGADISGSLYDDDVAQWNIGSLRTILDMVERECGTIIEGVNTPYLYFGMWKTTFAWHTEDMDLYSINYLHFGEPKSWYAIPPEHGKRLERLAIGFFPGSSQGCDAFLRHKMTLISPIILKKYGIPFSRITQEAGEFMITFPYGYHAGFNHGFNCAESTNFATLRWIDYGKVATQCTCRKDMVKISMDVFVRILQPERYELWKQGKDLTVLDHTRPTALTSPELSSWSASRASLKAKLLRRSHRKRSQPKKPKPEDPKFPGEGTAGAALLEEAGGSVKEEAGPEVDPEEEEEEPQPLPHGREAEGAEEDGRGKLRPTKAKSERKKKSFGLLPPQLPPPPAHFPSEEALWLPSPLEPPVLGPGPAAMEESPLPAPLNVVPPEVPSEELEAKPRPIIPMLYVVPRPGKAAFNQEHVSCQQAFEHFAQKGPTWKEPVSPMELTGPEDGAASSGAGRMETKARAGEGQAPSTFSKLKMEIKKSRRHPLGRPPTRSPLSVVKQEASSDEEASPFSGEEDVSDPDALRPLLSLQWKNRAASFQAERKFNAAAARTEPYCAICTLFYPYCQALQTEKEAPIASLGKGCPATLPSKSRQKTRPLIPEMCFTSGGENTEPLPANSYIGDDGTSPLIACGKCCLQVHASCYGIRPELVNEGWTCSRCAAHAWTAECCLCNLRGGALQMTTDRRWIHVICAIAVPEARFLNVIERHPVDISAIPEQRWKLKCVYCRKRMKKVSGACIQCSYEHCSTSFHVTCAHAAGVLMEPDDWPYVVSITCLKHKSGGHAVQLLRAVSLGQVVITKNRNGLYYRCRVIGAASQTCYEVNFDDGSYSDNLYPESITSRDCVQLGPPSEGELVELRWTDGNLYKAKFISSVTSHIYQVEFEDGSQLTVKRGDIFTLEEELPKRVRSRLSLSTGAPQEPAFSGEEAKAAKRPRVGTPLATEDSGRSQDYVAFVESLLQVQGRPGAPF

Molecular target: FLAG-KDM4B deletion mutant lacking the JmjN domain (UniProt O94953)
Assay: co-IP; transfected cells (293T named in the methods); NP-40 lysis buffer (10 mM Tris pH 7.9, 150 mM NaCl, 1 mM EDTA, 5% glycerol); immunoprecipitation with anti-FLAG antibody, immunoblot with anti-HA antibody

binding: binds
B1: HA-CCAR1 (protein, UniProt Q8CH18 1-1146)
chain: MAQFGGQKNPPWATQFTATAVSQPAALGVQQPSLLGASPTIYTQQTALAAAGLTTQTPANYQLTQTAALQQQAAAVLQQQYSQPQQALYSVQQQLQQPQQTILTQPAVALPTSLSLSTPQPAAQITVSYPTPRSSQQQTQPQKQRVFTGVVTKLHDTFGFVDEDVFFQLGAVKGKTPQVGDRVLVEATYNPNMPFKWNAQRIQTLPNQNQSQTQPLLKTPTAVIQPIVPQTTFGVQAQPQPQSLLQAQISAASITPLLQTQPQPLLQQPQQKAGLLQPPVRIVSQPQPARRLDPPSRFSGRNDRGDQVPNRKDDRSRERDRERRRSRERSPQRKRSRERSPRRERERSPRRVRRVVPRYTVQFSKFSLDCPSCDMMELRRRYQNLYIPSDFFDAQFTWVDAFPLSRPFQLGNYCNFYVMHREVESLEKNMAVLDPPDADHLYSAKVMLMASPSMEDLYHKSCALAEDPQDLRDGFQHPARLVKFLVGMKGKDEAMAIGGHWSPSLDGPNPEKDPSVLIKTAIRCCKALTGIDLSVCTQWYRFAEIRYHRPEETHKGRTVPAHVETVVLFFPDVWHCLPTRSEWETLSRGYKQQLVEKLQGERKKADGEQDEEEKDDGEVKEIATPTHWSKLDPKAMKVNDLRKELESRALSSKGLKSQLIARLTKQLKIEEQKEEQKELEKSEKEEEDEDDKKSEDDKEEEERKRQEEVERQRQERRYILPDEPAIIVHPNWAAKSGKFDCSIMSLSVLLDYRLEDNKEHSFEVSLFAELFNEMLQRDFGVRIYKSLLSLPEKEDKKDKEKKSKKEERKDKKEEREDDIDEPKPKRRKSGDDKDKKEDRDERKKEEKRKDDSKDDDETEEDNNQDEYDPMEAEEAEDEDDDREEEEVKRDDKRDVSRYCKDRPAKDKEKEKPQMVTVNRDLLMAFVYFDQSHCGYLLEKDLEEILYTLGLHLSRAQVKKLLNKVVLRESCFYRKLTDTSKDDENHEESEALQEDMLGNRLLLPTPTIKQESKDGEENVGLIVYNGAMVDVGSLLQKLEKSEKVRAEVEQKLQLLEEKTDEDGKTILNLENSNKSLSGELREVKKDLGQLQENLEVSENMNLQFENQLNKTLRNLSTVMDDIHTVLKKDNVKSEDRDEKSKENGSGV
